Assay results taken from publication doi:10.1101/2023.10.26.564194.
These are yes or no findings as the source states them, for the method shown. In cells and extracts the contact can be indirect. Some entries that bind do so weakly or less than the wild type.

The chains behind the UniProt entries cited, without tags or fusion partners.
UniProt P04792: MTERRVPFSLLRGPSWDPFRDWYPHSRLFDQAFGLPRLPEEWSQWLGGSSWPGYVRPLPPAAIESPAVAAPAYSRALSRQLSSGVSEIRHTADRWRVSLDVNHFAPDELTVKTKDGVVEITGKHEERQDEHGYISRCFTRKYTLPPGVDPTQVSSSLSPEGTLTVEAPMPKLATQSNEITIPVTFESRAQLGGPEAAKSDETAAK

Legend:
[1] = target: T1, nuclear factor erythroid 2-related factor 2 (NRF2), endogenous (human (endogenous in MDA-MB-231, HCT116, MCF7)) (UniProt Q16236); assay: proximity ligation
T1 sequence: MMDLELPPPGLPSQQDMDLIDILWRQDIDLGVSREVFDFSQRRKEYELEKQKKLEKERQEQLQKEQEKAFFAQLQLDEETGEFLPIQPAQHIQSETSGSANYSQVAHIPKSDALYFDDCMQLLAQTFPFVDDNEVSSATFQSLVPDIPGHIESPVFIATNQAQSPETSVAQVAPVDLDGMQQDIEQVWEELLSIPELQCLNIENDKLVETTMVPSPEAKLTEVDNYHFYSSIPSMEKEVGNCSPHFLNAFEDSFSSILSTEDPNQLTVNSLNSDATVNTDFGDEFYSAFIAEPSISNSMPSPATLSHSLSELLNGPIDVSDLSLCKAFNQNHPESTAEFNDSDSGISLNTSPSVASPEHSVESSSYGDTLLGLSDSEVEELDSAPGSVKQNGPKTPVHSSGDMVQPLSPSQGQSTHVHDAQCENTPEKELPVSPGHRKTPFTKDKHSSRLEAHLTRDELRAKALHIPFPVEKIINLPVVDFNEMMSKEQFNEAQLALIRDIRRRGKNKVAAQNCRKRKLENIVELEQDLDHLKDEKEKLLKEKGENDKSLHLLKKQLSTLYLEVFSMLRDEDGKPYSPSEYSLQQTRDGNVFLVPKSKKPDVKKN

[2] = target: T1, nuclear factor erythroid 2-related factor 2 (NRF2), endogenous (human (endogenous in MDA-MB-231, HCT116, MCF7)); assay: co-IP

- binding [1]: binds
- binding [2]: binds
Substance: HSP27, endogenous (from UniProt P04792 1-205)
